# Measurements as given in the supplement of paper PMC8728848.
# The list shows a part of the results.
# B1: MXA PilAct-eGFP (Myxococcus xanthus), Q59589 (protein)
# chain: MRVSRFNPRNRGFTLIELMIVVAIIGILAAIAIPNFIKFQARSKQSEAKTNLKALYTAQKSFFSEKDRYSDFANEIGFAPERGNRYGYRVSAAAGDCEVRNAADLPVPAAGVPCISNDSFRFGANSAIDDPTPVVARFVPQGAAGWNTTLGVQPTIADCPNCNFFAGARGNADNEATFDDWVIAGFEGSGQVGPCSEAGNVASGTPYNTRNDVACDGAAQ
# Legend:
# Experiment in all cases: glycan array binding signal (z-score within array); higher = stronger binding
# Settings in all cases: glycan notation: IUPAC condensed, linker removed
# [1] = biological target: Neu5Ac(a2-3)Gal(b1-4)Glc
# How it was run: (§1)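 From the Consortium for Functional Glycomics database, 3228 arrays were curated, keeping only those whose protein sequence was available. Binding is given as a within-array Z-score averaged across arrays sharing a protein sequence and across linkers. Negative Z-scores can be read as non-binding.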
# [2] = biological target: Neu5Ac(a2-3)Gal(b1-4)GlcNAc
# How it was run: as §1
# [3] = biological target: Neu5Ac(a2-3)Gal(b1-4)GlcNAc(b1-2)Man
# How it was run: as §1
# [4] = biological target: Neu5Ac(a2-3)Gal(b1-4)GlcNAc(b1-2)Man(a1-3)[GlcNAc(b1-4)][Neu5Ac(a2-3)Gal(b1-4)GlcNAc(b1-2)Man(a1-6)]Man(b1-4)GlcNAc(b1-4)GlcNAc
# How it was run: as §1
# [5] = biological target: Neu5Ac(a2-3)Gal(b1-4)GlcNAc(b1-2)Man(a1-3)[Neu5Ac(a2-3)Gal(b1-4)GlcNAc(b1-2)Man(a1-6)]Man(b1-4)GlcNAc(b1-4)GlcNAc
# How it was run: as §1
# [6] = biological target: Neu5Ac(a2-3)Gal(b1-4)GlcNAc(b1-2)Man(a1-3)[Neu5Ac(a2-3)Gal(b1-4)GlcNAc(b1-2)Man(a1-6)]Man(b1-4)GlcNAc(b1-4)[Fuc(a1-6)]GlcNAc
# How it was run: as §1
# [7] = biological target: Neu5Ac(a2-3)Gal(b1-4)GlcNAc(b1-2)Man(a1-3)[Neu5Ac(a2-6)Gal(b1-4)GlcNAc(b1-2)Man(a1-6)]Man(b1-4)GlcNAc(b1-4)GlcNAc
# How it was run: as §1
# [8] = biological target: Neu5Ac(a2-3)Gal(b1-4)GlcNAc(b1-2)[Neu5Ac(a2-3)Gal(b1-4)GlcNAc(b1-4)]Man(a1-3)[GlcNAc(b1-4)][Neu5Ac(a2-3)Gal(b1-4)GlcNAc(b1-2)[Neu5Ac(a2-3)Gal(b1-4)GlcNAc(b1-6)]Man(a1-6)]Man(b1-4)GlcNAc(b1-4)GlcNAc
# How it was run: as §1
# [9] = biological target: Neu5Ac(a2-3)Gal(b1-4)GlcNAc(b1-2)[Neu5Ac(a2-3)Gal(b1-4)GlcNAc(b1-4)]Man(a1-3)[GlcNAc(b1-4)][Neu5Ac(a2-3)Gal(b1-4)GlcNAc(b1-4)Man(a1-6)]Man(b1-4)GlcNAc(b1-4)GlcNAc
# How it was run: as §1
# [10] = biological target: Neu5Ac(a2-3)Gal(b1-4)GlcNAc(b1-2)[Neu5Ac(a2-3)Gal(b1-4)GlcNAc(b1-6)]Man(a1-6)[Neu5Ac(a2-3)Gal(b1-4)GlcNAc(b1-2)Man(a1-3)][GlcNAc(b1-4)]Man(b1-4)GlcNAc(b1-4)GlcNAc
# How it was run: as §1
# [11] = biological target: Neu5Ac(a2-3)Gal(b1-4)GlcNAc(b1-3)Gal
# How it was run: as §1
# [12] = biological target: Neu5Ac(a2-3)Gal(b1-4)GlcNAc(b1-3)Gal(b1-3)GlcNAc
# How it was run: as §1
# [13] = biological target: Neu5Ac(a2-3)Gal(b1-4)GlcNAc(b1-3)Gal(b1-4)GlcNAc
# How it was run: as §1
# [14] = biological target: Neu5Ac(a2-3)Gal(b1-4)GlcNAc(b1-3)Gal(b1-4)GlcNAc(b1-2)Man(a1-3)[Neu5Ac(a2-3)Gal(b1-4)GlcNAc(b1-3)Gal(b1-4)GlcNAc(b1-2)Man(a1-6)]Man(b1-4)GlcNAc(b1-4)GlcNAc
# How it was run: as §1
# [15] = biological target: Neu5Ac(a2-3)Gal(b1-4)GlcNAc(b1-3)Gal(b1-4)GlcNAc(b1-3)Gal(b1-4)GlcNAc
# How it was run: as §1
# [16] = biological target: Neu5Ac(a2-3)Gal(b1-4)GlcNAc(b1-3)Gal(b1-4)GlcNAc(b1-3)Gal(b1-4)GlcNAc(b1-2)Man(a1-3)[Neu5Ac(a2-3)Gal(b1-4)GlcNAc(b1-3)Gal(b1-4)GlcNAc(b1-3)Gal(b1-4)GlcNAc(b1-2)Man(a1-6)]GalNAc
# How it was run: as §1
# [17] = biological target: Neu5Ac(a2-3)Gal(b1-4)GlcNAc(b1-3)Gal(b1-4)GlcNAc(b1-3)GalNAc
# How it was run: as §1
# [18] = biological target: Neu5Ac(a2-3)Gal(b1-4)GlcNAc(b1-3)Gal(b1-4)GlcNAc(b1-3)[Neu5Ac(a2-3)Gal(b1-4)GlcNAc(b1-3)Gal(b1-4)GlcNAc(b1-6)]GalNAc
# How it was run: as §1
# [19] = biological target: Neu5Ac(a2-3)Gal(b1-4)GlcNAc(b1-3)Gal(b1-4)GlcNAc(b1-6)[Gal(b1-3)]GalNAc
# How it was run: as §1
# [20] = biological target: Neu5Ac(a2-3)Gal(b1-4)GlcNAc(b1-3)Gal(b1-4)[Fuc(a1-3)]GlcNAc
# How it was run: as §1
# [21] = biological target: Neu5Ac(a2-3)Gal(b1-4)GlcNAc(b1-3)GalNAc
# How it was run: as §1
# [22] = biological target: Neu5Ac(a2-3)Gal(b1-4)GlcNAc(b1-3)[Neu5Ac(a2-3)Gal(b1-4)GlcNAc(b1-6)]GalNAc
# How it was run: as §1
# [23] = biological target: Neu5Ac(a2-3)Gal(b1-4)GlcNAc(b1-6)GalNAc
# How it was run: as §1
# [24] = biological target: Neu5Ac(a2-3)Gal(b1-4)GlcNAc(b1-6)[Gal(b1-3)]GalNAc
# How it was run: as §1
# [25] = biological target: Neu5Ac(a2-3)Gal(b1-4)GlcNAc(b1-6)[Neu5Ac(a2-3)Gal(b1-3)]GalNAc
# How it was run: as §1
# [26] = biological target: Neu5Ac(a2-3)Gal(b1-4)GlcNAc6S
# How it was run: as §1
# [27] = biological target: Neu5Ac(a2-3)Gal(b1-4)[Fuc(a1-3)]GlcNAc
# How it was run: as §1
# [28] = biological target: Neu5Ac(a2-3)Gal(b1-4)[Fuc(a1-3)]GlcNAc(b1-2)Man
# How it was run: as §1
# [29] = biological target: Neu5Ac(a2-3)Gal(b1-4)[Fuc(a1-3)]GlcNAc(b1-3)Gal
# How it was run: as §1
# [30] = biological target: Neu5Ac(a2-3)Gal(b1-4)[Fuc(a1-3)]GlcNAc(b1-3)Gal(b1-4)GlcNAc
# How it was run: as §1
# [31] = biological target: Neu5Ac(a2-3)Gal(b1-4)[Fuc(a1-3)]GlcNAc(b1-3)Gal(b1-4)[Fuc(a1-3)]GlcNAc(b1-3)Gal(b1-4)[Fuc(a1-3)]GlcNAc
# How it was run: as §1
# [32] = biological target: Neu5Ac(a2-3)Gal(b1-4)[Fuc(a1-3)]GlcNAc(b1-3)GalNAc
# How it was run: as §1
# [33] = biological target: Neu5Ac(a2-3)Gal(b1-4)[Fuc(a1-3)]GlcNAc(b1-6)[Gal(b1-3)]GalNAc
# How it was run: as §1
# [34] = biological target: Neu5Ac(a2-3)Gal(b1-4)[Fuc(a1-3)]GlcNAc(b1-6)[Neu5Ac(a2-3)Gal(b1-3)]GalNAc
# How it was run: as §1
# [35] = biological target: Neu5Ac(a2-3)Gal(b1-4)[Fuc(a1-3)]GlcNAc6S
# How it was run: as §1
# [36] = biological target: Neu5Ac(a2-3)Gal6S(b1-4)GlcNAc
# How it was run: as §1
# [37] = biological target: Neu5Ac(a2-3)Gal6S(b1-4)[Fuc(a1-3)]GlcNAc
# How it was run: as §1
# [38] = biological target: Neu5Ac(a2-3)GalNAc
# How it was run: as §1
binder,measurement,setting,value
B1,glycan array binding signal (z-score),[1],0.69
same,glycan array binding signal (z-score),[2],-0.719
same,glycan array binding signal (z-score),[3],0.721
same,glycan array binding signal (z-score),[4],-0.908
same,glycan array binding signal (z-score),[5],0.099
same,glycan array binding signal (z-score),[6],0.081
same,glycan array binding signal (z-score),[7],-0.696
same,glycan array binding signal (z-score),[8],0.702
same,glycan array binding signal (z-score),[9],0.516
same,glycan array binding signal (z-score),[10],0.453
same,glycan array binding signal (z-score),[11],-0.221
same,glycan array binding signal (z-score),[12],-0.899
same,glycan array binding signal (z-score),[13],-0.764
same,glycan array binding signal (z-score),[14],-0.586
same,glycan array binding signal (z-score),[15],0.34
same,glycan array binding signal (z-score),[16],-0.014
same,glycan array binding signal (z-score),[17],-0.775
same,glycan array binding signal (z-score),[18],-0.452
same,glycan array binding signal (z-score),[19],-0.85
same,glycan array binding signal (z-score),[20],-0.755
same,glycan array binding signal (z-score),[21],-1.47
same,glycan array binding signal (z-score),[22],-0.792
same,glycan array binding signal (z-score),[23],-0.341
same,glycan array binding signal (z-score),[24],-0.657
same,glycan array binding signal (z-score),[25],1.55
same,glycan array binding signal (z-score),[26],-0.008
same,glycan array binding signal (z-score),[27],-0.025
same,glycan array binding signal (z-score),[28],2.06
same,glycan array binding signal (z-score),[29],-0.773
same,glycan array binding signal (z-score),[30],-0.9
same,glycan array binding signal (z-score),[31],-0.246
same,glycan array binding signal (z-score),[32],-1.35
same,glycan array binding signal (z-score),[33],0.753
same,glycan array binding signal (z-score),[34],0.345
same,glycan array binding signal (z-score),[35],-0.607
same,glycan array binding signal (z-score),[36],0.862
same,glycan array binding signal (z-score),[37],-0.423
same,glycan array binding signal (z-score),[38],-0.502

# Reformatted with tabs: part of the list above.
binder	measurement	setting	value
B1	glycan array binding signal (z-score)	[10]	0.453
same	glycan array binding signal (z-score)	[20]	-0.755
